PubChem BioAssay AID1159579, Peter MacCallum Cancer Centre – 2015

- Test: 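Retest candidate lymphatic endothelial migration regulators using several independent siRNAs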 (follow-up of hits)
- Cells: human dermal lymphatic endothelial cells
- Reagent: single siRNA against human genes, 25 nM
- Measured: 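High content images of wound closure area and cell nuclei counts, each the average of two wells, expressed against mock transfection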
- Reading the numbers: migration relative to mock: higher = more migration into the scratch; mean nuclei count: higher = more cells remaining
- Rule for the call: 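Called active when the migration ratio is 0.6 or lower (impaired) or 1.3 or higher (accelerated), but inactive whenever the mean nuclei count falls under 3300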
- Meaning of the calls: active = migration changed (impaired or accelerated); inactive = no migration change, or too few cells
The whole screen tested about 2,000 reagents; shown is a part drawn at random. Of all reagents, 549 (27%) are marked active. 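Some migration ratios are negative; siRNAs with too few cells are inactive whatever their migration ratio.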 A number with no mark means an inactive call. The numbers tell different reagents against one gene apart. Not given: the time to read-out.

target,reagent no.,migration relative to mock,migration and cell number class,mean nuclei count
RTL8C,1,0.56 (active),migration reduced,5426
RTL8C,2,0.77,no change in migration or cell number,5617
RTL8C,3,0.94,no change in migration or cell number,5306
RTL8C,4,0.6 (active),migration reduced,5130
PCDHGA8,1,1.15,no change in migration or cell number,4568
PCDHGA8,2,1.05,no change in migration or cell number,5530
PCDHGA8,3,0.92,no change in migration or cell number,5398
PCDHGA8,4,0.79,no change in migration or cell number,6120
SPATA46,1,1.05,no change in migration or cell number,5069
SPATA46,2,1.05,no change in migration or cell number,6209
SPATA46,3,0.56 (active),migration reduced,5648
SPATA46,4,0.7,no change in migration or cell number,5412
HMX1,1,-0.08,too few cells; migration not scored,2967
HMX1,2,0.52 (active),migration reduced,5592
HMX1,3,1.07,no change in migration or cell number,7360
HMX1,4,0.7,no change in migration or cell number,6184

Records listed so far marked active, once more:
target,reagent no.,migration relative to mock,migration and cell number class,mean nuclei count
RTL8C,1,0.56 (active),migration reduced,5426
RTL8C,4,0.6 (active),migration reduced,5130
SPATA46,3,0.56 (active),migration reduced,5648
HMX1,2,0.52 (active),migration reduced,5592

The list goes on.
target,reagent no.,migration relative to mock,migration and cell number class,mean nuclei count
S1PR1,1,0.47 (active),migration reduced,3961
S1PR1,2,0.75,no change in migration or cell number,6740
S1PR1,3,0.43 (active),migration reduced,6640
S1PR1,4,-0.45,too few cells; migration not scored,3187
CLCN7,1,0.11 (active),migration reduced,3886
CLCN7,2,0.8,no change in migration or cell number,6198
CLCN7,3,0.64,no change in migration or cell number,5266
CLCN7,4,0.58 (active),migration reduced,4663
SDR9C7,1,1.1,no change in migration or cell number,6330
SDR9C7,2,0.95,no change in migration or cell number,5974
SDR9C7,3,0.73,no change in migration or cell number,4836
SDR9C7,4,1.14,no change in migration or cell number,5648
ARL11,1,0.86,no change in migration or cell number,5811
ARL11,2,0.56 (active),migration reduced,3712
ARL11,3,0.94,no change in migration or cell number,7009
ARL11,4,0.82,no change in migration or cell number,5232
SLITRK1,1,0.94,no change in migration or cell number,4654
SLITRK1,2,0.74,no change in migration or cell number,5875
SLITRK1,3,1,no change in migration or cell number,6234
SLITRK1,4,0.12 (active),migration reduced,4002
DOT1L,1,0.64,no change in migration or cell number,6874
DOT1L,2,0.29 (active),migration reduced,5087
DOT1L,3,0.51 (active),migration reduced,4380
DOT1L,4,0.61,no change in migration or cell number,4831
FBXO7,1,-0.16 (active),migration reduced,3735
FBXO7,2,0.33 (active),migration reduced,4210
FBXO7,3,0.9,no change in migration or cell number,6130
FBXO7,4,0.88,no change in migration or cell number,5334
AGR2,1,1.17,no change in migration or cell number,5790
AGR2,2,0.74,no change in migration or cell number,4554
AGR2,3,1.13,no change in migration or cell number,5484
AGR2,4,1.08,no change in migration or cell number,5942
